Part of at least one peptide drawing is inferred or uncertain, most often the ends. Square brackets hold non-standard residues; d marks the D form. Peptide text beside a SMILES is read from it.
Test system: HL60 promyelocytic leukemia cells
Assay: Cytotoxicity assay in HL60 cells (Annexin V FITC / PI flow cytometry)
Type: cell-based
Details: 48 hours, 0-80 μM, % Viability (Annexin V low, PI low)
Description: We examined the cytotoxicity of peptides BCL-26 and BCL-27 using an assay in HL60 promyelocytic leukemia cells. HL60 PML suspension cells were set at a density of 3.5×10^3 cells/well in 150 μL of RPMI+1.5% fetal bovine serum (FBS) in a 96 well dish. BCL-26 or BCL-27, reconstituted at a concentration of 10 mg/mL in 20 mM His, pH 7.5, was added to each well at a volume of 50 μL to a final concentration range of 0-80 μM. Cells were incubated with peptide for 48 hours at 37° C. Cell viability was quantified by flow cytometry using abcam Annexin V FITC apoptosis detection kit. Briefly, cells were washed with PBS and resuspended in 1× assay buffer containing Annexin V FITC and propidium iodide (PI). Annexin V detects apoptotic cells, and PI stains dead cells. After staining, apoptotic cells show green fluorescence, dead cells show red and green fluorescence, and live cells show little or no fluorescence. Cells were selected for analysis based on forward scatter (FSC) vs. side scatter (SSC), and analyzed by BD Accuri C6 Plus flow cytometer to detect Annexin V-FITC binding (Ex=488 nm; Em=530 nm) using FITC signal detector and PI staining by the phycoerythrnn emission signal detector. Percentage of Annexin V^low and PI^low were quantified and presented as % Viability. […]

For `CC(C)C[C@@H](NC(=O)[C@@H](Cc1c[nH]c2ccccc12)NC(=O)[C@H](N)Cc1c[nH]c2ccccc12)C(=O)N[C@H](C)C(=O)N[C@H](CCCNC(=N)N)C(=O)N[C@H](CCC(N)=O)C(=O)N[C@H](CC(C)C)C(=O)N[C@H](C)C(=O)N[C@H](CCCNC(=N)N)C(=O)N[C@H](CC(C)C)C(=O)N[C@H](C)C(=O)N[C@H](CCC(N)=O)C(=O)N[C@H](CC(C)C)C(=O)N[C@H](C)C(=O)N1CCC[C@@H]1C(=O)N[C@H](CO)C(=O)N[C@H](CC(=O)O)C(=O)NCC(=O)N[C@H](CCCNC(=N)N)C(=O)NCC(=O)O` [BCL-93] (H-[dW][dW][dL][dA][dR][dQ][dL][dA][dR][dL][dA][dQ][dL][dA][dP][dS][dD]G[dR]G-OH; N-terminus and C-terminus assumed), the EC50 was < 2000 nM.
